We go through 17 targets from the supplement of paper PMC6411743.

By UniProt entry, the sequences of proteins in these tests, tags left out. Where a name states a change or a piece, a line headed by the entry shows the natural chain unless it says otherwise.
UniProt P30533, whole entry: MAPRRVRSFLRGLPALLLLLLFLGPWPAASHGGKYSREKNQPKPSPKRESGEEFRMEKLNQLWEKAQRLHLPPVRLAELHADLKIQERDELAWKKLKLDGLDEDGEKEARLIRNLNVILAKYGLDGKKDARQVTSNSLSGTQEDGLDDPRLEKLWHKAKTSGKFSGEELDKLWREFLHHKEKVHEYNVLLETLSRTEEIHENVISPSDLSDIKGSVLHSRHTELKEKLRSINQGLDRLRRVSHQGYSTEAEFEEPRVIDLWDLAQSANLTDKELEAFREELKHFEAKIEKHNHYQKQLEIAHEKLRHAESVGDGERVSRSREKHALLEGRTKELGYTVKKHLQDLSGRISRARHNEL
UniProt P33993, whole entry: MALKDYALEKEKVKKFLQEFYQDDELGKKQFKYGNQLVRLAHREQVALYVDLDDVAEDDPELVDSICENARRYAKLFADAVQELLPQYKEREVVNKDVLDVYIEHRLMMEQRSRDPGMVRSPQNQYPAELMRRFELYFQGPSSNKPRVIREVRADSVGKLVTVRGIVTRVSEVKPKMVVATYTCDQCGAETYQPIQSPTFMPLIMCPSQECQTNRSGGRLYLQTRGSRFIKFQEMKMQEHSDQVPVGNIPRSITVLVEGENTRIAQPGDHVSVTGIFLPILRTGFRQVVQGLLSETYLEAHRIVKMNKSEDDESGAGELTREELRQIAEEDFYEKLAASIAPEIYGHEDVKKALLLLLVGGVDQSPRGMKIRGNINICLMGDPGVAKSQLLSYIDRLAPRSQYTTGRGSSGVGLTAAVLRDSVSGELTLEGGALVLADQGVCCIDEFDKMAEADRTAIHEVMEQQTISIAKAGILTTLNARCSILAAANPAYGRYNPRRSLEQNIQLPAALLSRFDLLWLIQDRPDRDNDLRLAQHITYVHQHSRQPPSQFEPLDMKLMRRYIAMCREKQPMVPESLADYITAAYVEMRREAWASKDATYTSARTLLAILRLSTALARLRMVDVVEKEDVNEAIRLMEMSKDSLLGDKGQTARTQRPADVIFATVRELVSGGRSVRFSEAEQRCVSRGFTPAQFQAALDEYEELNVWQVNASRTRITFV
UniProt P16930: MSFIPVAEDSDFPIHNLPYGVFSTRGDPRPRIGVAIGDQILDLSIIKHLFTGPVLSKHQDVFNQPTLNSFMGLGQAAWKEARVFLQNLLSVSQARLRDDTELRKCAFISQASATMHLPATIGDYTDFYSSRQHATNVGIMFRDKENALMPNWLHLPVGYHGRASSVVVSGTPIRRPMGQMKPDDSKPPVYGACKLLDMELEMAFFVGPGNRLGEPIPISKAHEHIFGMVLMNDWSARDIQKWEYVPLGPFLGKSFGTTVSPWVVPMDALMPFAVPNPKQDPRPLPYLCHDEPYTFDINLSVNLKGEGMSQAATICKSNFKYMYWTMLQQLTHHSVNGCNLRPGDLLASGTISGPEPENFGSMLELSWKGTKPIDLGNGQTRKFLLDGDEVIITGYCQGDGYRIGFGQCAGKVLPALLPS
UniProt P17706: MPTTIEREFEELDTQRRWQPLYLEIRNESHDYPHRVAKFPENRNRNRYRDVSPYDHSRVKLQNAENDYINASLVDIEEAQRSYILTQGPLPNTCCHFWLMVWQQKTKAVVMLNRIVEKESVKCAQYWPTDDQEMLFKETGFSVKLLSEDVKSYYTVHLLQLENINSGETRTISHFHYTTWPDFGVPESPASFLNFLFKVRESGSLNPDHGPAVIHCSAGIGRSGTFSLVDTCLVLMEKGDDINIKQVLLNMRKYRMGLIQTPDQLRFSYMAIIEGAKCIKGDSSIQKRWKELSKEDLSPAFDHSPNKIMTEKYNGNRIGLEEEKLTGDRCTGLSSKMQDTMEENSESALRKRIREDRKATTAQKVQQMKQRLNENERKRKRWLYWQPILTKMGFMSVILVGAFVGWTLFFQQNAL
UniProt P25054, whole entry: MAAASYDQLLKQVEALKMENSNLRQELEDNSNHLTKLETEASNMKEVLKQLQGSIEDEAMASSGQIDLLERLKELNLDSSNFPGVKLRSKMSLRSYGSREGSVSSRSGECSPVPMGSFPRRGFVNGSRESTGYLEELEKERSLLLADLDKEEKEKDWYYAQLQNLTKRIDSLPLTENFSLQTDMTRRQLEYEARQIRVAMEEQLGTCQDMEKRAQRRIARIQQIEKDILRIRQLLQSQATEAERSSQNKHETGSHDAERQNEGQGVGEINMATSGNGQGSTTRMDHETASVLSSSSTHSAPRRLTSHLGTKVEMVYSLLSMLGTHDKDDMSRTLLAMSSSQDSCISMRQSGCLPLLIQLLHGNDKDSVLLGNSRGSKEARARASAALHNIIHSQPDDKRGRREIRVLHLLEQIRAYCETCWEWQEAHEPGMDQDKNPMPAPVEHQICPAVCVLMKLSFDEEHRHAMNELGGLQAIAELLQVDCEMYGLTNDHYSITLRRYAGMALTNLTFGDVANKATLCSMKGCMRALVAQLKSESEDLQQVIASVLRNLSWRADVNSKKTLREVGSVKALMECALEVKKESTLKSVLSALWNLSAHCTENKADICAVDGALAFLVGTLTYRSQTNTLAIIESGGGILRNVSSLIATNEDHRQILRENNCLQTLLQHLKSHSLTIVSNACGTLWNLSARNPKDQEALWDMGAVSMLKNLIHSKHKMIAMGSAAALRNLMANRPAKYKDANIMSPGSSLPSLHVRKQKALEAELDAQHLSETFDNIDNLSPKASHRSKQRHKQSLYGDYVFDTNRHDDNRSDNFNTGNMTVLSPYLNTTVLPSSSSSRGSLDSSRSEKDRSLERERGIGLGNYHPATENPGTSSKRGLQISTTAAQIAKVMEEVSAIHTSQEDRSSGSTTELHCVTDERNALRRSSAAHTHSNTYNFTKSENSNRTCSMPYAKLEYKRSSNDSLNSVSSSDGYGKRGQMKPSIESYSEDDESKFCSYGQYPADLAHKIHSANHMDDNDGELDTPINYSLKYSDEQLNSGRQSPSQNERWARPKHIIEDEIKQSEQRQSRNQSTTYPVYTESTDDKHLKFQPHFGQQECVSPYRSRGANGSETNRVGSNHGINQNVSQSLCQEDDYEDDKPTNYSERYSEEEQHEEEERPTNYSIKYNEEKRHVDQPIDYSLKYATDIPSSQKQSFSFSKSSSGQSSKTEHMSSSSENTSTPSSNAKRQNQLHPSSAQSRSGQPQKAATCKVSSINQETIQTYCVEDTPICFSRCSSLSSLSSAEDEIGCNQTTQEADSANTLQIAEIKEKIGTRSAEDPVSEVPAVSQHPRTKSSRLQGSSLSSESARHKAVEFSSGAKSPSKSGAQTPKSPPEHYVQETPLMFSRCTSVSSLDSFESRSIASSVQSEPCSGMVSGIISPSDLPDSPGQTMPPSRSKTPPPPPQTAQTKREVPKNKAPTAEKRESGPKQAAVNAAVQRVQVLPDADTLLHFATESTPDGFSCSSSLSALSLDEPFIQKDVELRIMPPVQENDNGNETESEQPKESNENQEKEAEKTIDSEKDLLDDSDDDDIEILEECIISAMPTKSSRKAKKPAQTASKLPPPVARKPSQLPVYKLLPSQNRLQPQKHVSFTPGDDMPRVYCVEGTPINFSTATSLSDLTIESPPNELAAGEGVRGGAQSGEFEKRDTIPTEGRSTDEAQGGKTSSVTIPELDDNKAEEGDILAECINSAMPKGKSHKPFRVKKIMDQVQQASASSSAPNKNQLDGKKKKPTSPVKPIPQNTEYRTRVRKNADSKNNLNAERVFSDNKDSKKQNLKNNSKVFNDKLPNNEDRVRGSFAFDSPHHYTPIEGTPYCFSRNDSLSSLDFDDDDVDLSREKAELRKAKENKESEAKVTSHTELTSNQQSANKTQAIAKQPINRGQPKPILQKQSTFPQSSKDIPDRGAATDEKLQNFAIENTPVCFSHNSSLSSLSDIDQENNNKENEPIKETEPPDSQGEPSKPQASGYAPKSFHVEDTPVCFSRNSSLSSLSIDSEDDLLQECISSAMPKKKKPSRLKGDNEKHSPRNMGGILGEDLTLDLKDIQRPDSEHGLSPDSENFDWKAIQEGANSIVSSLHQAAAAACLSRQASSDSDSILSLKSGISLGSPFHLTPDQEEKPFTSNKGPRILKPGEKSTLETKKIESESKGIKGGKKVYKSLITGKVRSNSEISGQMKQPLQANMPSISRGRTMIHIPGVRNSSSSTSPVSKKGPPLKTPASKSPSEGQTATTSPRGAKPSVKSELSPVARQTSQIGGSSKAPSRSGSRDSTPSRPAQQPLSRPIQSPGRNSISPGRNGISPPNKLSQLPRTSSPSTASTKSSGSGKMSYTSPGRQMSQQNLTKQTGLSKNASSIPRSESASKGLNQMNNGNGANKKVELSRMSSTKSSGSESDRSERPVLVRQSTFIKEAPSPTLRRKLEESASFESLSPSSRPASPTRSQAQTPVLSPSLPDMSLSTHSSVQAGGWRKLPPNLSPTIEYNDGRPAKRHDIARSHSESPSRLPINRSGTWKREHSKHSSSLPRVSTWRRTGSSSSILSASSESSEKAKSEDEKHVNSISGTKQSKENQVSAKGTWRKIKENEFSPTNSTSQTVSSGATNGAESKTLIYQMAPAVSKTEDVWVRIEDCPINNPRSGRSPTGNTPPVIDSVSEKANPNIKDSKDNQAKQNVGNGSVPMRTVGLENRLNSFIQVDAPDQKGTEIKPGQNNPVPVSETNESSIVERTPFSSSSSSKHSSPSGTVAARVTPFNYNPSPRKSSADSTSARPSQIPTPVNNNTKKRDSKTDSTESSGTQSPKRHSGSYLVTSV
UniProt P17096: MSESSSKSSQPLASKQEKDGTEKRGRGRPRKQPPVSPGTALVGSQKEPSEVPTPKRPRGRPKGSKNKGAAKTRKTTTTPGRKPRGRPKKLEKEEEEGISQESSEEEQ
UniProt P31323, whole entry: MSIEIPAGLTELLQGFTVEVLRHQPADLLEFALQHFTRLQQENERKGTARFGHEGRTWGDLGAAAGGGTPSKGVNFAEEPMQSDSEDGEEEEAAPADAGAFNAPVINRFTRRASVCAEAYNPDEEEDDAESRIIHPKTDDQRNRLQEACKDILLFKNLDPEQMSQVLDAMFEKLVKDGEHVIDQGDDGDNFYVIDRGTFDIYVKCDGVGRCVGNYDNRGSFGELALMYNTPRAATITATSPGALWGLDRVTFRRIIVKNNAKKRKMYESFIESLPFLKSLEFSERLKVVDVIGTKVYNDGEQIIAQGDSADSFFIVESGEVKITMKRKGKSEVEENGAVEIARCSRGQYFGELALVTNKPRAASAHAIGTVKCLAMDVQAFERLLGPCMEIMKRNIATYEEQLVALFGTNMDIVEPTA
UniProt P20042, whole entry: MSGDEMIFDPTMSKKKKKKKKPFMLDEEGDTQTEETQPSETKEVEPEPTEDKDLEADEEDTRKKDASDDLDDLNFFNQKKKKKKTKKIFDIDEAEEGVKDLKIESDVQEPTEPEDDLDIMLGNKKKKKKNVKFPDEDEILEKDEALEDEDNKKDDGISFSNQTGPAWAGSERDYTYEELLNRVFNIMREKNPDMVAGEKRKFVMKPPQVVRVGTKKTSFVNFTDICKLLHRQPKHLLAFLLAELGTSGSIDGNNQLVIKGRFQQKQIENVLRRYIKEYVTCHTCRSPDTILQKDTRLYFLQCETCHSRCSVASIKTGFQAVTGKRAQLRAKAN
UniProt P21291: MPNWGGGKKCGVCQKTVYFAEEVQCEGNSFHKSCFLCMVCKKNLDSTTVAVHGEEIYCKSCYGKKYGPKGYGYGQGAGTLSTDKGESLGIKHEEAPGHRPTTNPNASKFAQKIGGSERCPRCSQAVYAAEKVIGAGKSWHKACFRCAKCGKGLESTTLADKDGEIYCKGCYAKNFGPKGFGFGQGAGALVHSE
UniProt P33552, whole entry: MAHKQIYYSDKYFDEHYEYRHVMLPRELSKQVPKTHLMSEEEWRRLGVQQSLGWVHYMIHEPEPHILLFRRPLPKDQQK
UniProt P26038, whole entry: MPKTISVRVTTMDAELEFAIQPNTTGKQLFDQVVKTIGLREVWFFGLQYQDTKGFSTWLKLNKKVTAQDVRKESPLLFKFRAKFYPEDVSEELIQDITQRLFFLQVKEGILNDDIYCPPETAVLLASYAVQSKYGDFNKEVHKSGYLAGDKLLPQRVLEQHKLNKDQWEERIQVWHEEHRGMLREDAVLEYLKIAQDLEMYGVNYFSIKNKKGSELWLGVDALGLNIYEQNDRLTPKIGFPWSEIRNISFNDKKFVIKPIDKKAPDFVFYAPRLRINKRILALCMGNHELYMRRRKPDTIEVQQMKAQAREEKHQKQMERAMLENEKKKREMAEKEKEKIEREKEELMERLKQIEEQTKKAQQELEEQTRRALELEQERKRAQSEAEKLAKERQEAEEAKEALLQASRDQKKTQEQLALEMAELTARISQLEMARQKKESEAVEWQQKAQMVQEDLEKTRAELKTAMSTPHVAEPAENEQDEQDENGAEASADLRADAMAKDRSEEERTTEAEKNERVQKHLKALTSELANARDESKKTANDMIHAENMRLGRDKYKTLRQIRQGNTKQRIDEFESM

± gives the standard deviation of the averaged measurements. This is a selection; strong and weak results do not stand in their true shares.

Compound in this assay: Nc1ncnc2c1ncn2[C@@H]1O[C@H](COP(=O)(O)OP(=O)(O)OP(=O)(O)O)[C@@H](O)[C@H]1O [adenosine triphosphate]
The assay is described as follows: NP40-soluble protein abundance relative to vehicle (solubility fold change) (ratio); higher = more soluble protein in presence of ATP. The method, boiled down:
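Across three independent experiments, values are fold changes against the detergent-processed vehicle for each replicate, based on vsn-normalised intensities. The samples were Jurkat crude lysate treated with eight concentrations (0.1 to 10 mM) for 10 min at room temperature and then 3 min at 37 °C. Lysate was solubilised with 0.8% NP40 and benzonase, ultracentrifuged, and the supernatant analysed by TMT-labelled LC-MS/MS.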

On to LRPAP1 (UniProt P30533), for which the NP40-soluble protein abundance worked out at 0.99 ± 0.098 (concentration: 1mM); 0.954 ± 0.01 (concentration: 2mM); 1.02 ± 0.0071 (concentration: 4mM); 1.11 ± 0.029 (concentration: 6mM); 1.03 ± 0.039 (concentration: 8mM); 0.994 ± 0.11 (concentration: 10mM).
In the case of UniProt P17544-2|P17544-4|P17544-6, the NP40-soluble protein abundance came to 1.07 ± 0.15 (concentration: 1mM); 0.948 ± 0.046 (concentration: 2mM); 0.916 ± 0.029 (concentration: 4mM); 0.927 ± 0.055 (concentration: 6mM); 0.855 ± 0.032 (concentration: 8mM); 0.835 ± 0.052 (concentration: 10mM).
For MCM7 (UniProt P33993), the NP40-soluble protein abundance is, setting by setting: (concentration: 1mM) 0.966 ± 0.038; (concentration: 2mM) 0.954 ± 0.031; (concentration: 4mM) 0.928 ± 0.014; (concentration: 6mM) 0.91 ± 0.025; (concentration: 8mM) 0.965 ± 0.021; (concentration: 10mM) 0.951 ± 0.042.
On to FAH (UniProt P16930), for which the NP40-soluble protein abundance (concentration: 1mM) was 0.974 ± 0.097; the NP40-soluble protein abundance (concentration: 2mM) was 0.939 ± 0.068; the NP40-soluble protein abundance (concentration: 4mM) was found to be 0.93 ± 0.085; the NP40-soluble protein abundance (concentration: 6mM) came out at 0.91 ± 0.11; the NP40-soluble protein abundance (concentration: 8mM) was found to be 0.95 ± 0.062; the NP40-soluble protein abundance (concentration: 10mM) came to 0.913 ± 0.054.
Turning to UniProt P17706 and related entries, the NP40-soluble protein abundance by setting is: (concentration: 1mM) 0.96 ± 0.086; (concentration: 2mM) 0.93 ± 0.084; (concentration: 4mM) 0.92 ± 0.077; (concentration: 6mM) 0.945 ± 0.073; (concentration: 8mM) 0.923 ± 0.053; (concentration: 10mM) 0.931 ± 0.053.
With UniProt P25054 and related entries, the NP40-soluble protein abundance (concentration: 1mM) amounted to 0.962 ± 0.089; the NP40-soluble protein abundance (concentration: 2mM) was found to be 0.987 ± 0.072; the NP40-soluble protein abundance (concentration: 4mM) was determined as 0.991 ± 0.028; the NP40-soluble protein abundance (concentration: 6mM) worked out at 1.05 ± 0.15; the NP40-soluble protein abundance (concentration: 8mM) turned out to be 0.966 ± 0.024; the NP40-soluble protein abundance (concentration: 10mM) was 0.978 ± 0.027.
UniProt P17096 and related entries: the NP40-soluble protein abundance turned out to be 0.91 ± 0.21 (concentration: 1mM); 1.05 ± 0.2 (concentration: 2mM); 1.03 ± 0.18 (concentration: 4mM); 1.19 ± 0.45 (concentration: 6mM); 1.16 ± 0.14 (concentration: 8mM); 1.43 ± 0.7 (concentration: 10mM).
Turning to UniProt P18206 and related entries, the NP40-soluble protein abundance was 0.934 ± 0.052 (concentration: 1mM); 0.957 ± 0.032 (concentration: 2mM); 0.953 ± 0.039 (concentration: 4mM); 0.966 ± 0.024 (concentration: 6mM); 0.914 ± 0.034 (concentration: 8mM); 0.935 ± 0.017 (concentration: 10mM).
Turning to PRKAR2B (UniProt P31323), the NP40-soluble protein abundance by setting is: (concentration: 1mM) 1.04 ± 0.07; (concentration: 2mM) 1.03 ± 0.06; (concentration: 4mM) 0.998 ± 0.021; (concentration: 6mM) 1.03 ± 0.022; (concentration: 8mM) 0.968 ± 0.032; (concentration: 10mM) 1.03 ± 0.057.
EIF2S2 (UniProt P20042): the NP40-soluble protein abundance is, setting by setting: (concentration: 1mM) 0.963 ± 0.05; (concentration: 2mM) 1.02 ± 0.027; (concentration: 4mM) 0.981 ± 0.029; (concentration: 6mM) 1.06 ± 0.02; (concentration: 8mM) 0.99 ± 0.013; (concentration: 10mM) 1.018 ± 0.0065.
In the case of CSRP1 (UniProt P21291), the NP40-soluble protein abundance is, setting by setting: (concentration: 1mM) 0.958 ± 0.025; (concentration: 2mM) 0.97 ± 0.018; (concentration: 4mM) 0.937 ± 0.019; (concentration: 6mM) 0.945 ± 0.053; (concentration: 8mM) 0.95 ± 0.02; (concentration: 10mM) 0.944 ± 0.014.
For the target CKS2 (UniProt P33552), the NP40-soluble protein abundance (concentration: 1mM) turned out to be 1.032 ± 0.0068; the NP40-soluble protein abundance (concentration: 2mM) was 1 ± 0.026; the NP40-soluble protein abundance (concentration: 4mM) was 1.02 ± 0.081; the NP40-soluble protein abundance (concentration: 6mM) was 1.08 ± 0.027; the NP40-soluble protein abundance (concentration: 8mM) was found to be 0.955 ± 0.028; the NP40-soluble protein abundance (concentration: 10mM) is 0.957 ± 0.081.
In the case of UniProt P35580 and related entries, the NP40-soluble protein abundance is, setting by setting: (concentration: 1mM) 1.06 ± 0.064; (concentration: 2mM) 1.05 ± 0.048; (concentration: 4mM) 1.02 ± 0.044; (concentration: 6mM) 1.07 ± 0.068; (concentration: 8mM) 1 ± 0.033; (concentration: 10mM) 1.01 ± 0.028.
As to TMEM11 (UniProt P17152), the NP40-soluble protein abundance was found to be 0.979 ± 0.13 (concentration: 1mM); 0.931 ± 0.13 (concentration: 2mM); 0.915 ± 0.093 (concentration: 4mM); 0.834 ± 0.11 (concentration: 6mM); 0.95 ± 0.065 (concentration: 8mM); 0.911 ± 0.11 (concentration: 10mM).
Take UniProt P26038 and related entries: the NP40-soluble protein abundance runs as follows: (concentration: 1mM) 1.01 ± 0.058; (concentration: 2mM) 0.954 ± 0.031; (concentration: 4mM) 0.943 ± 0.012; (concentration: 6mM) 1 ± 0.065; (concentration: 8mM) 0.915 ± 0.055; (concentration: 10mM) 0.914 ± 0.06.
In the case of UniProt P32969 and related entries, the NP40-soluble protein abundance runs as follows: (concentration: 1mM) 0.976 ± 0.016; (concentration: 2mM) 0.92 ± 0.09; (concentration: 4mM) 0.884 ± 0.098; (concentration: 6mM) 0.804 ± 0.13; (concentration: 8mM) 0.595 ± 0.1; (concentration: 10mM) 0.954 ± 0.094.
In the case of FKBP2 (UniProt P26885), the NP40-soluble protein abundance by setting is: (concentration: 1mM) 0.923 ± 0.043; (concentration: 2mM) 0.919 ± 0.044; (concentration: 4mM) 0.882 ± 0.027; (concentration: 6mM) 0.897 ± 0.031; (concentration: 8mM) 0.894 ± 0.014; (concentration: 10mM) 0.852 ± 0.058.
